No constants are given. Whether binding was seen depends on the method and setting. In cells and extracts the contact can be indirect. For some assays here: Binding calls can cover weak binding; strength is not graded here. For some assays here: Sequences can lack the tags named with a protein.
Legend:
[1] = target: T1, myc-MST1 K59R (UniProt Q13043); test: co-IP; Anti-c-Myc Immunoprecipitation kit (Sigma) on co-transfected cell lysates; blot with anti-GFP; repeated three times
T1 sequence: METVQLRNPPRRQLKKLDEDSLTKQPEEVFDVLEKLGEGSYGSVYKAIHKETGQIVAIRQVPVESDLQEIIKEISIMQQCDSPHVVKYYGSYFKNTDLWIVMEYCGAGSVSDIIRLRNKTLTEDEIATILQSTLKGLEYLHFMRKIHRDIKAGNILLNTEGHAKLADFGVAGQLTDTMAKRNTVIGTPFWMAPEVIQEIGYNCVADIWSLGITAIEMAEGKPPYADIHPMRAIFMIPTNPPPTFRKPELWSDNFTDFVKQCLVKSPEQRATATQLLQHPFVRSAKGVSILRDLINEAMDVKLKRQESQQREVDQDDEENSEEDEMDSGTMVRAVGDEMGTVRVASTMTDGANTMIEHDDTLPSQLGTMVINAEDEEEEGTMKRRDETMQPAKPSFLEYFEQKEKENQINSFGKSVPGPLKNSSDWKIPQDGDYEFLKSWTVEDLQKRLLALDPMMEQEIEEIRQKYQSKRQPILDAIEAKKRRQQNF

[2] = target: T2, mCherry-MST1ΔSARAH (UniProt Q13043); test: FRET or BRET; FLIM-FRET in fixed COS7 cells co-transfected with EGFP-labelled donor and mCherry-labelled acceptor; 96-well plate, wide-field time-gated FLIM, 10 fields of view per well, EGFP lifetime from a monoexponential fit; shift of at least 32 ps taken as significant
T2 sequence: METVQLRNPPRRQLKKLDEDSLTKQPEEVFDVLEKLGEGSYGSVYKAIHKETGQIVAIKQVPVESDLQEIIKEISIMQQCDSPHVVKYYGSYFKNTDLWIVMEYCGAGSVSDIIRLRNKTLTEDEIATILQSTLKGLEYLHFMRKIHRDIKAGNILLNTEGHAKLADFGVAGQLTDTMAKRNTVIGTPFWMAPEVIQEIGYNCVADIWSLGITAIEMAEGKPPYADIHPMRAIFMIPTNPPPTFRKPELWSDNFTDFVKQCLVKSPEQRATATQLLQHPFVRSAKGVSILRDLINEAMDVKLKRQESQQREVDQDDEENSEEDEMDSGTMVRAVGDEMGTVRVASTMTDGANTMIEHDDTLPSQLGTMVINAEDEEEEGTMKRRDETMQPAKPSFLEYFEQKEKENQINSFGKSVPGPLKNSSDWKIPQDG

[3] = target: T3, mCherry-SARAH_(MST1) (UniProt Q13043); test: as above
T3 sequence: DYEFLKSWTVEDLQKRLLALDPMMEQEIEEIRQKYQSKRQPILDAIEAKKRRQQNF

[4] = target: mCherry-MST1 (UniProt Q13043); test: FRET or BRET; FLIM-FRET in fixed COS7 cells co-transfected with EGFP-labelled donor and mCherry-labelled acceptor; optically sectioned FLIM with a spinning Nipkow disc, 40x objective; monoexponential fit and global double exponential fit (FRET fraction, KD per cell from calibrated intensities)
[5] = target: T3, mCherry-SARAH_(MST1); test: as above

“EGFP-RASSF1 (wild type) (from UniProt Q9NS23-2)” was tested, and the binding [1] was “binds”, the binding [2] was “no binding” and the binding [3] was “binds”. The binding [4] was “binds” and the binding [5] was “binds”.

Source: PMC4919659 (2016)
